Here are results for 3 molecules from PMC8835298.

Results are given in words; binding and its absence hold for the method and conditions named. Binding seen in cells or lysates may run through a third protein. Here binding means that the protein was enriched with, or labelled near, the bait; the list need not be complete.

To fix the notation:
B1: dynein light-chain 1 (PBANKA_0708100) (protein, UniProt A0A509AMN4 1-198)
chain: MNRTVVKEVTISQCIKNWEQKTGKKISEEENVSFICNIPLIEKLDQSINTLEKCKRLSLSTNRIEKFVPMSGLKNIEILSIGRNCIKKLQFLEDISGTLKQLWISYNNIDKLDNLQSLKNLQVLYLFHNKIKGLEEIDKLNTLPELIELGLKGNPIYEGRTNEYMKLVILKKLPQLKVVDNETITENQRNDSLTIEVV
B2: kinesin 8B (PBANKA_0202700) (protein, UniProt A0A509AB64 1-1460)
chain: MKDKEIVKLNSNGDNHLINLKNVQDKNLSSSGIPSRYSSFESDVQASKQKDDHIYNTDKLNKIMNNTSSIGDTQYCNNRIDDTKLPEKLLQKYFSNNSTYKYTNSIEHQNMMNAHNEDLSTYQKNEAAEHIDINNHNKEQKKNEHEELKGVHDLNFQNNSYKKEEICEKKLIEPIKNTSIKKEEDQKDTMKIFVSNYGDNIYRNTEIYKTHTESCRNFTDQKYKTQYYDENKLSPLYKNKSDKFYDTFSEEKKELHFNSIDELMKEIQIFNNSMQTITSNDPTFIQKNNKHIYSENNSNKREANEINNSLIIENTVSCSNISTDACFGESPQNSNREKSDILDNEEYNLQEHSNNSCYEKNESIKSFKNFVKSEIKTENSILFTEDKEPQHTELKQDNLMGSQLNKSDVEYTDQESDNNNSCKQNDVSSISMKLTDVEPYTKLDNEESIETSKISSNQWEEMKKSFYDIENNLLYLNRENNYSLERNIEGTELLNVNNSETNKEIKFEKNETPQISYHTDEYKEKNEEIIKSQLDSDKKSTIYNYIHKDSFPNYEYDDTETKHLNILKNCSEKDEAFQNKNNISEQFNYNYLQDFTNKQNSLNGFTPKDYQNNNNYYYTDKEIDIHSPYARRDVLPDLSLERCIYSKEGSPNGKTDTLNGPDTSNRTDASRINSAGKGRTPRSSKSGGSTKTAFAIVKTGKIKQAEKDLVKTPKVFKKTEGNTRTSVNGNSNGNVGTKSPSNYNISSSANYSTHCNNGGNGVTPTSTKTNKNEKDITYNMNVVIRCRPMSNSEKNEGAKNVIKIMDNKMIVLLDPSDNTDNVLRQNRTKEKRYCFDYVFDENSTQEDVYNNSVKPLVDAVIKGYNSTVFAYGATGAGKTHTIIGYKNEPGIMMMILQDLFKKIKTLKAMNEYKIKCSFIEIYNENICDLLNPSSEYLDLREDPVKGITVSNIFEVCTTSVEEIMELIHTGNRNRTQEPTDANRTSSRSHGVLQVIVEETEKGQGLYQQTKKGKLCVIDLAGSERASQTNNKGMRMLEGANINRSLLALGNVINALVSRSKGTSKSNFIPFRDSKLTRLLKDSLGGNCKTLMIANISPSHLSYEDTHNTLKYANRAKNIKNVVTSNSVVVKHHLTMYIDIIEKLKTEIECLKEQLNDKEKTHHFIISESNSTNYDYYDSVKDCDKNSSREELLNIIYFLKRENQKLRCNLGSITPHISTSDSSTPTNEFIKYTEEINNIKIVNEKLFIDNKKFKVNIQEYIQIIENIKEVNHKYKAQINSLKNMLYNHDVSHLQMRLWLDDLKRKYTQLKENITDKDNAQLLEGLQDELNKVLNERKQIKNFILNIEQNLVENKEVNMDALKGNQIKMLEENKNKMENQLQININQTNNLINKLVANIKDDQMKSFMYLFYTNTILMQEREDFQDMFELSSVIINHKEKQLQQLIETSKISNLFNIIKNKI
B3: dynein intermediate-chain, putative (PBANKA_1018300) (protein, UniProt A0A509AKV0 1-592)
chain: MIDYYYCYTNNKSAIGKKCKFSKSKSQIIGRIEPNNQIKKKYMYKENINYNDENIKKYSEEYINIESVKLENKFFYHSEGGWTKDVDISEHQNKLKYIKRLDKDINLINSLKYLMNETTKIINKNNCINIYEEYFKDDIKNDEHFKIKSLLVIKDKLRKYNRFVTSIKWANDNTHKIAISYCVNNYQKILNNTPKNCLLYNLNEINNPYQILYSKSFIKCLRFNHKNSDLLLAGSYDGTIHLWDLRKKNNLCESSSINCSHKNIVNDITWLQTKTNNQCLSTSSDGLCLIWDIRNLSNHIESFYLNKDTTDTFDLLEKSNIISNNLGGTLSPDNPTKNTQKEHSTSKLDANDDNYYSANYIEWCLEAGPSKILVGTDEGYILSLSKRQSKHLELLQKYGTSNEKHLSAITSIKRVSINLKYFLTTDKWGFNIWSEDIKFPIISNYYNESIINKGHWIHDSPFFILTRKDGYLDFWNILSNFNEPTIKHKICNSSITEIDAHLNNRYISIGNEEGDIHILKLGKSFCTNSSENKNSLDELLERESKREKNLEYIRKQLNCIKKKKEYLSFSDIQIQDQQIKETERIYDSIRQL

In the test the target is PbI2–mCherry (Plasmodium berghei). As to the kind of experiment: affinity purification with mass spectrometry; soluble proteins of purified P. berghei schizonts; RFP-Trap_A beads overnight at 4 °C in 20 mM Tris, 150 mM NaCl, 0.5% Triton X-100, pH 7.5; 10 washes; LC-MS/MS, 5 biological replicates against the parental wild type (t-test, FDR < 0.05, S0 = 1).
For the molecule B1, the binding entry is given as “binds”.
As for B2, the entry is “binds”; as for B3, “binds”.
